Results taken from paper doi:10.1101/2022.04.15.488448.

Molecular target: C-terminal 3×FLAG-tagged 1700029I15Rik (mouse)
Experiment: co-IP

binding: binds
B1: SPPL2C (recombinant, expressed in HEK293T cells) (protein, UniProt A2A6C4 29-690)
chain: EYGLVRVVSKNWSKDYCVLYSSDYVNLPRDLHHAPLLSLHDGTKTPWCPDEDSFHQAQDSSPRQRPLHQTTTMVTRGNCSFYAKGWLAQDQGAQGLLIVSRARNQQCSDTISKPQDPSKPWPALTIPVAVLRYTDMLDIVSHTYGDTDVRVAMFAPLEPVTDYNMAIIFILAVGTVAAGGYWAGLMEANKLQRRQAQRGGGLGGHNQQQTVAAERSQRAWEDDDFEDAPMDFTPAMTGAVVTMSCSIMILLYFFYDCFVYVMIGIFSLGASTGLYSCLAPILCHLPLWRYQWVLPGQRVSVTWPLLLLAGLCAMVTVLWVIHRNEDHWAWLLQDTLGVAYCLFVLRRVRLPTFKNCTLFLLALLAFDVFFVFITPLFTKTGESIMVEVASGPADSSSHERLPMVLKVPRLSFSALTLCNQPFSILGFGDIVVPGFLVAYCHRFDMQVQSRQVYYMACTVAYAVGLLVTFVAMILMQMGQPALLYLVSSTLLTSLAVATCRQEFTLFWTGQGRAKIPAEPVAQPCIASAVGSKMKLEDAKDSRTTNRFEQAVDGESGDLESSTGDDMAEMVTLSEDEATSPEGHSESSEGWSDTNLDPNELPSGSPMALEAMLIPLIQPIPHPSELGHIRTQSRVHDSSLPWMGLHKRKGLKVKKSMSAQAPL

Results are given in words; binding and its absence hold for the method and conditions named. Binding seen in cells or lysates may run through a third protein. Binding can be weak; no strength is given.
